# Test results: PubChem BioAssay AID540276 (National Center for Advancing Translational Sciences (NCATS), 2011)
# Out of some 300,000 compounds screened, about 5,400 (1.8%) were called active. Inconclusive results, whose numbers are uncertain, are shown with a selection of clear calls. Calls come from the whole dose curve; tested in HEK293 cells. Potencies beside an inconclusive call are fits to weak or partial responses and may not hold up.
# Test: qHTS for inhibitors of binding or entry into cells for Marburg Virus
# Conditions: Marburg virus pseudotyped entry inhibition, cell reporter; activity change, negative = inhibition: at 37.8 µM (top of the series) unless noted
# % is set by controls: 0 for no effect and ±100 for the full control effect; potency is the fitted concentration of half-maximal effect.
Structure (SMILES),Potency,"activity change, negative = inhibition"
CCN=C1NN=C(c2cc(C)n(CCc3ccccc3)c2C)CS1,"inconclusive: 11.2 µM [inhibitor, single point]",
N=C1C(=O)OCC1c1ccccc1NC(=O)CN1CCOCC1 (stereo not given),"inconclusive: 35.5 µM [activator, single point]",
Cn1nc(-c2ccc(Cl)cc2)c2cc(C(=O)N3CCN(C(=O)c4ccco4)CC3)sc21,,inactive: -0.693%
COC(=O)c1sc(-c2cccs2)cc1N,"inconclusive: 3.98 µM [activator, partial curve, poor fit]",
O=C(c1ccc([N+](=O)[O-])cc1)N1CCN(Cc2ccccc2[N+](=O)[O-])CC1,"inconclusive: 22.4 µM [inhibitor, single point]",
O=C(Cc1ccccc1)N/N=C/c1ccc2cccc(O)c2n1,,inactive: -3.21% [at 46.1 µM]
CC1=N/C(=C/c2ccco2)C(=O)O1,,inactive: 16.8% [at 46.1 µM]
Cc1c(C2Nc3ccccc3NC3=C2C(=O)CC(C)(C)C3)cnn1C (stereo not given),inactive,
Cc1c(C)c2ccc(OS(C)(=O)=O)c(C)c2oc1=O,"inconclusive: 0.282 µM [activator, full curve, poor fit]",
CCC12CN3CC(C)(CN(C1)C3c1c(C)n(C)c3ccccc13)C2=O (stereo not given),"inconclusive: 3.55 µM [inhibitor, single point]",
CN1CCN(C(=O)c2sc(=S)n(-c3ccccc3)c2N)CC1,"inconclusive: 6.51 µM [inhibitor, single point]",
Cc1cc(C)cc(NC(=O)CN2CCC(NC(=O)c3cccc(F)c3)CC2)c1,,inactive: -22.3%
O=[N+]([O-])c1ccc2c(c1)C(N1CCOCC1)/C(=C/COc1ccc3ccccc3c1Br)O2 (stereo not given),active: 12.6 µM,
CCOC(=O)c1cc(-c2ccccc2)nc2nc(N(CC)CC)sc12,"inconclusive: 11.2 µM [inhibitor, partial curve, poor fit]",
COc1ccc(CNC(=O)COC(=O)CCCOc2ccc(Cl)cc2Cl)cc1OC,"inconclusive: 0.316 µM [activator, partial curve, poor fit]",
CCN(CC)Cc1cc(NC2=NS(=O)(=O)c3ccccc32)ccc1OC(=O)C(C)C,,inactive: -11.3%
COc1cccc(/C=C/C(=O)c2ccc3c(c2)OCCO3)c1OC,"inconclusive: 17.8 µM [inhibitor, single point]",
C/C(=N/N=C/c1ccc(N(C)C)cc1)c1ccccc1,"inconclusive: 2.24 µM [inhibitor, partial curve, poor fit]",
C=CCN1C(=O)N(c2ccc(F)cc2)C(=O)C1CC(=O)Nc1ccc(Cl)cc1 (stereo not given),"inconclusive: 12.6 µM [inhibitor, single point]",
COc1ccc(C(C)=O)c(Oc2nc(CN3CCOCC3)nc3scc(-c4cccs4)c23)c1,inactive,
COc1ccc(/C=c2\s/c(=C(/C#N)C(=O)NCc3ccco3)n(-c3ccccc3)c2=O)cc1,,inactive: -3.1%
Cc1[nH]c2ccccc2c1/C=N/NC(=O)CNC(=O)c1ccccc1,"inconclusive: 14.1 µM [inhibitor, single point]",
CCC(=O)c1ccc(OCCn2cnc3ccccc32)cc1,"inconclusive: 12.6 µM [inhibitor, single point]",
COc1ccccc1OC(=O)CCN1c2ccccc2Sc2ccccc21,"inconclusive: 1.12 µM [activator, partial curve, poor fit]",

Structure (SMILES),Potency,"activity change, negative = inhibition"
Cc1ccc(NC(=O)C2(c3ccccc3)CCCC2)nc1,"inconclusive: 7.94 µM [inhibitor, partial curve, poor fit]",
CC(C)[C@H](NC(=O)c1ccccc1)C(=O)OCC(=O)N1CCCCCC1,"inconclusive: 4.11 µM [inhibitor, single point]",
O=[N+]([O-])c1ccc(/C=N/Nc2nc(-c3ccccc3)c3cc(Br)ccc3n2)o1,,inactive: 16.2%
O=C(Nc1sc2c(c1C(=O)NC1CCCCC1)CCC2)c1ccco1,,inactive: 0.324%
COc1ccc(COC(=O)NN=C2C[C@@H](O)[C@@H](O)[C@@H]3[C@H]4C(=O)N(c5ccc(F)cc5F)C(=O)[C@@H]4CC[C@H]23)cc1,"inconclusive: 5.31 µM [activator, single point]",
Cc1ccccc1NC(=S)N(CCN1CCCCCC1)Cc1cccs1,"inconclusive: 20 µM [inhibitor, single point]",
O=C(Cn1c(=O)n(-c2ccccc2)c(=O)c2c3c(sc21)CCCC3)Nc1cccc(F)c1,,inactive: 11% [at 46.1 µM]
S=C(NC1CC1)N1CCN(C(=S)NC2CC2)CC1,,inactive: 0.308% [at 46.1 µM]
CCN(CC)S(=O)(=O)c1ccc(OC)c(NC(=S)Nc2ccc(C)c(C)c2)c1,"inconclusive: 2.82 µM [inhibitor, partial curve]",
O=C(Nc1ccccc1)N1CC=C(c2ccc(F)cc2)CC1,"inconclusive: 1.58 µM [activator, partial curve, poor fit]",
COc1cccc(OCC(O)CNC(=O)c2oc3ccc(C)cc3c2C)c1 (stereo not given),"inconclusive: 5.62 µM [inhibitor, single point]",
O=C(COCc1cc(-c2ccc3c(c2)OCO3)on1)Nc1cccnc1Cl,,inactive: 19.2% [at 46.1 µM]
O=C(CCS(=O)(=O)c1ccccc1)Nc1ccc(Cl)cn1,,inactive: 8.86% [at 46.1 µM]
O=C(CCCn1c(=S)[nH]c2ccccc2c1=O)NCCSCc1ccccc1,"inconclusive: 3.16 µM [inhibitor, single point]",
OC(CSc1c(Cl)cccc1Cl)CN1CCN(c2ccccc2F)CC1 (stereo not given),"inconclusive: 16.4 µM [inhibitor, partial curve]",
CCCn1c(=O)[nH]c(=O)c2c1nc(-c1cc([N+](=O)[O-])ccc1Cl)n2CCOC,"inconclusive: 35.5 µM [inhibitor, single point]",
COc1cccc(C(=O)Nc2nc3c(c(=O)[nH]2)CCCC3)c1,"inconclusive: 35.5 µM [activator, single point]",
CC(C)NC(=O)CSCc1c(F)cccc1Cl,"inconclusive: 18.3 µM [activator, partial curve]",
O=C(Nc1ccc(OC(F)F)c(Cl)c1)[C@@H]1CCCN1C(=O)c1cccs1,,inactive: 1.84%
O=S(=O)(Nc1ccc(Cc2ccncc2)cc1)c1ccc(Cl)s1,"inconclusive: 0.316 µM [inhibitor, full curve, poor fit]",
COc1ccc(Oc2nnc(-c3ccc(C)cc3)c3ccccc23)cc1,,inactive: -5.55%
CCCCN1C(=O)C(NC(C)=O)c2ccccc21 (stereo not given),"inconclusive: 23.1 µM [activator, partial curve, poor fit]",
Cc1ccc(Oc2ncccc2COC(=O)Nc2ccccc2C)cc1,"inconclusive: 2.82 µM [activator, partial curve, poor fit]",
COc1ccc(NC(=O)CSCC(=O)Nc2cc(Cl)ccc2N2CCOCC2)cc1,"inconclusive: 28.2 µM [inhibitor, single point]",

Structure (SMILES),Potency,"activity change, negative = inhibition"
Cc1cccc(N2C(=O)C3C4C=CC(C5CC45)C3C2=O)n1 (stereo not given),"inconclusive: 3.16 µM [inhibitor, single point]",
COc1ccccc1N1CCN(S(=O)(=O)c2cc3[nH]c(=O)c(=O)[nH]c3cc2C)CC1,inactive,
Cc1c(C(=O)OC/C(O)=C(\C#N)c2nc3ccccc3[nH]2)oc2ccccc12,"inconclusive: 31.6 µM [inhibitor, single point]",
O=C1CC(NS(=O)(=O)c2ccc([N+](=O)[O-])cc2)CN1c1ccc2c(c1)OCCO2 (stereo not given),,inactive: 7.55%
C=CCCC(=O)N1CCC(n2nccc2NC(=O)CCCc2ccccc2)CC1,,inactive: 18.6%
O=C(CSc1nc(-c2ccccc2)c(-c2ccccc2)o1)N1CCOCC1,"inconclusive: 17.8 µM [inhibitor, partial curve, poor fit]",
Clc1ccc(NNc2ccnc3cc(Cl)ccc23)cc1,"inconclusive: 0.82 µM [inhibitor, full curve]",
CCCCNC(=NCc1cccc(C(F)(F)F)c1)Nc1ccccc1,"inconclusive: 6.31 µM [inhibitor, partial curve, poor fit]",
Cc1ccc(C(=O)Nc2ccc3c(c2)OCCO3)o1,"inconclusive: 32.6 µM [inhibitor, single point]",
CN(C)c1nc(OCCNC(=O)COc2ccc(Cl)cc2Cl)nc(N(C)C)n1,,inactive: -0.647%
COc1ccc(S(=O)(=O)NC(CC(=O)O)c2ccco2)cc1 (stereo not given),"inconclusive: 0.794 µM [inhibitor, partial curve, poor fit]",
Cc1c(C(=O)C(C)C)n(C)c2ccccc12,"inconclusive: 10 µM [activator, partial curve, poor fit]",
COc1ccc(OC)c(S(=O)(=O)NCCCc2ccccc2)c1,,inactive: 2.08% [at 46.1 µM]
CCN(CC)S(=O)(=O)c1ccc(C)c(N=C=S)c1,"inconclusive: 10 µM [inhibitor, partial curve, poor fit]",
CC(C)C(=O)Nc1cccc(-c2csc(-c3ccccc3)n2)c1,"inconclusive: 35.5 µM [activator, single point]",
C=CCn1c(SCc2ccc(C#N)cc2)nnc1-c1cccc(OC)c1,,inactive: -19.6% [at 46.1 µM]
Cc1ccc(C)c(N(C)C(=O)c2cc3c(=O)[nH]c4ccc(C)cc4c3s2)c1,,inactive: -0.617%
NC(=O)C1CCN(C(=O)/C=C/c2ccco2)CC1,,inactive: 22.6%
COc1ccc(C(=O)NCCC2=CCCCC2)cc1,active: 7.31 µM,
O=C(CN1CCCCC1)NCCNc1ccc(C(F)(F)F)cc1[N+](=O)[O-],"inconclusive: 31.6 µM [inhibitor, single point]",
O=C(N/N=C/c1ccncc1)c1cc2c(ccc3ccccc32)o1,"inconclusive: 1.12 µM [inhibitor, full curve, poor fit]",
CCN(CC)S(=O)(=O)c1ccc(NC(=O)Cn2c(=O)oc3ccccc32)cc1,"inconclusive: 31.6 µM [activator, single point]",

# 3 consecutive compounds already listed, quoted:
Structure (SMILES),Potency,"activity change, negative = inhibition"
Cc1c(C(=O)OC/C(O)=C(\C#N)c2nc3ccccc3[nH]2)oc2ccccc12,"inconclusive: 31.6 µM [inhibitor, single point]",
O=C1CC(NS(=O)(=O)c2ccc([N+](=O)[O-])cc2)CN1c1ccc2c(c1)OCCO2 (stereo not given),,inactive: 7.55%
C=CCCC(=O)N1CCC(n2nccc2NC(=O)CCCc2ccccc2)CC1,,inactive: 18.6%
